According to article PMC2567031:
No constants are given. Whether binding was seen depends on the method and setting. Binding seen in cells or lysates may run through a third protein. These calls come from enrichment with a bait or labelling near it, and not all partners need be listed.

Chains of the proteins cited; added tags and fusions are not shown. Residues count along the entry.
UniProt P56480, residues 47-529: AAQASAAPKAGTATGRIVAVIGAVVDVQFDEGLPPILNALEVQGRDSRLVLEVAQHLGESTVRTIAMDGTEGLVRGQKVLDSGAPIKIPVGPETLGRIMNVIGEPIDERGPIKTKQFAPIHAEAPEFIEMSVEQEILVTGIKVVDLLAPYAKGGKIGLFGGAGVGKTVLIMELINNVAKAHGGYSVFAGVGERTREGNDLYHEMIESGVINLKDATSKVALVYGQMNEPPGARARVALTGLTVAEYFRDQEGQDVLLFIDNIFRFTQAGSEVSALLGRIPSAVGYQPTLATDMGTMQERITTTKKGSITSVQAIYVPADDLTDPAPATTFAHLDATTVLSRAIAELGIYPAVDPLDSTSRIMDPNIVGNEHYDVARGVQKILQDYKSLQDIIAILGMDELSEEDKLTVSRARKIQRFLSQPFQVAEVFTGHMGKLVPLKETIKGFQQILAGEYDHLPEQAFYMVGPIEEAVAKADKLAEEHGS
UniProt Q9CYT6: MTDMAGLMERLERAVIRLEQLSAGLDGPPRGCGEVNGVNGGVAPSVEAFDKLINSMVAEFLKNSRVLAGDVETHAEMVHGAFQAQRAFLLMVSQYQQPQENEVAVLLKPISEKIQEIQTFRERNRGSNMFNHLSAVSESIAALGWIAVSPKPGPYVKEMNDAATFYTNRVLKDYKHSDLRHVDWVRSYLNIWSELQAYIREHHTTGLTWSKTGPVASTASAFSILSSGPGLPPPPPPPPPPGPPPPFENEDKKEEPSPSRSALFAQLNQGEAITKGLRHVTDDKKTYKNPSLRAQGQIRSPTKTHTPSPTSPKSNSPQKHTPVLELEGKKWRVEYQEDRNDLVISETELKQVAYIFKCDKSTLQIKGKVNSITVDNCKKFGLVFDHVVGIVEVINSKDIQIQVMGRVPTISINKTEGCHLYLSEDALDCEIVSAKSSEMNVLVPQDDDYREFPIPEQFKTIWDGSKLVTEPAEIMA
UniProt Q8BGD9: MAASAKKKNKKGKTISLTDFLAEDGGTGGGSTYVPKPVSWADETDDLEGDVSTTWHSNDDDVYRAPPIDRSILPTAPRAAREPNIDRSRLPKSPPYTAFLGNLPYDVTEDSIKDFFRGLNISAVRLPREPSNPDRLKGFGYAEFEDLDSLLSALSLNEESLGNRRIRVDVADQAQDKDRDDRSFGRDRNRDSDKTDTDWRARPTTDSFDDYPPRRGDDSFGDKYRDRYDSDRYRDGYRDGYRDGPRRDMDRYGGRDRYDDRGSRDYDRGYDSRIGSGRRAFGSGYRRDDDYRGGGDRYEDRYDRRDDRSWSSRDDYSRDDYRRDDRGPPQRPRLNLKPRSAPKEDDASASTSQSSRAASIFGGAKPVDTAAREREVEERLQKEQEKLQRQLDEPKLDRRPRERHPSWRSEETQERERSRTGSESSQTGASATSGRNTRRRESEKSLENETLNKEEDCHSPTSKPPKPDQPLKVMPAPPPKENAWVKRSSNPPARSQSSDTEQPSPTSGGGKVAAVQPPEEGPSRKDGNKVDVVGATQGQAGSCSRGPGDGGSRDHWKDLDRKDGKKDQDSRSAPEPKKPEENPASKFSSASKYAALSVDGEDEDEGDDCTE
UniProt P16627: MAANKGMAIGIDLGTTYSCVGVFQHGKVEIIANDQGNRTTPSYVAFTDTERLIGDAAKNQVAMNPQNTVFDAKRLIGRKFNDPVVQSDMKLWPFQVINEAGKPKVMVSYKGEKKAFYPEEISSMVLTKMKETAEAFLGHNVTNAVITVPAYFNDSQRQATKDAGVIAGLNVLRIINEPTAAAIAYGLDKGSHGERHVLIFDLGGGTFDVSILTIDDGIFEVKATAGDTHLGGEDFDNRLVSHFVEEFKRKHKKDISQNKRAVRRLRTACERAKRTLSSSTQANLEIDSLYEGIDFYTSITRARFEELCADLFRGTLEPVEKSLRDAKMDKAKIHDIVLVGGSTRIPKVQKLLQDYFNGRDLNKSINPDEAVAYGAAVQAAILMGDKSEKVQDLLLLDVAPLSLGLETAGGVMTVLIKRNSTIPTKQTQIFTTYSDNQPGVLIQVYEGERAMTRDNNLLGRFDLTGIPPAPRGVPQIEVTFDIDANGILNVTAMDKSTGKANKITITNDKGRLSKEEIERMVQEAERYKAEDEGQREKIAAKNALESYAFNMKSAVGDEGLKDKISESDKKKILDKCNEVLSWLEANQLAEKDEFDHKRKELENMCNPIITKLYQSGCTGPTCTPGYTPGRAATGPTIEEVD
UniProt P38647, residues 47-679: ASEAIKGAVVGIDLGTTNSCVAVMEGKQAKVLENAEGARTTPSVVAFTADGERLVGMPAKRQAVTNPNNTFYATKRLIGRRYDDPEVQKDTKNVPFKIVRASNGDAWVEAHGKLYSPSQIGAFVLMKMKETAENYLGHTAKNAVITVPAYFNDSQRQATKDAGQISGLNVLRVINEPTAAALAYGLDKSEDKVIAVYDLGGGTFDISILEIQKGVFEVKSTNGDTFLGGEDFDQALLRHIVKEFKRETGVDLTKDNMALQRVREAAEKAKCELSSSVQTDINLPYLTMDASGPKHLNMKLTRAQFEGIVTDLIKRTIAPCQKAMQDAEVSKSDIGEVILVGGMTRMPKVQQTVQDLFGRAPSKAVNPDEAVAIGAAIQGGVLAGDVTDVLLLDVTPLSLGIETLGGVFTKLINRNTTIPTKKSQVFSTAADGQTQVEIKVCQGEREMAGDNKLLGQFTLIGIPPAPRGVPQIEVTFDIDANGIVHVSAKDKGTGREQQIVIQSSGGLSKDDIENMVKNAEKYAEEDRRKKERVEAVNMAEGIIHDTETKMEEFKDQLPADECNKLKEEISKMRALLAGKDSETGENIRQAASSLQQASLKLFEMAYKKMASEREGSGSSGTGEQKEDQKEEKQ
UniProt P17156: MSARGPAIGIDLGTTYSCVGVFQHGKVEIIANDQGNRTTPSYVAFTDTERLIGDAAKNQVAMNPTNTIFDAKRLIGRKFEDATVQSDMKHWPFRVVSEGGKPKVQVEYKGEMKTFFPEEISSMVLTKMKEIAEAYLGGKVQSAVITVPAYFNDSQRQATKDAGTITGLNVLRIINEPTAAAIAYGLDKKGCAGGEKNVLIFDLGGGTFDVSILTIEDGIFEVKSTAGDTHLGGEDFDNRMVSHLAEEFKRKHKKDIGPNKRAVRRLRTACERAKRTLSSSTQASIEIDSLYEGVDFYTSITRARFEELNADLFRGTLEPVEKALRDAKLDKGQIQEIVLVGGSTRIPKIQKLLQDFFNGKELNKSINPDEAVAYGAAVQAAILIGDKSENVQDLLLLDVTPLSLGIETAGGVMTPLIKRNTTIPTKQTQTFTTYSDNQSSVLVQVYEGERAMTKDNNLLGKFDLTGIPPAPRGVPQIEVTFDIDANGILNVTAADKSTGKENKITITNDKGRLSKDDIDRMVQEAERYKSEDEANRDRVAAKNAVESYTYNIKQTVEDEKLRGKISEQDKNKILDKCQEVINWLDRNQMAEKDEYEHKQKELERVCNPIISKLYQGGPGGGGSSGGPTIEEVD
UniProt P20357: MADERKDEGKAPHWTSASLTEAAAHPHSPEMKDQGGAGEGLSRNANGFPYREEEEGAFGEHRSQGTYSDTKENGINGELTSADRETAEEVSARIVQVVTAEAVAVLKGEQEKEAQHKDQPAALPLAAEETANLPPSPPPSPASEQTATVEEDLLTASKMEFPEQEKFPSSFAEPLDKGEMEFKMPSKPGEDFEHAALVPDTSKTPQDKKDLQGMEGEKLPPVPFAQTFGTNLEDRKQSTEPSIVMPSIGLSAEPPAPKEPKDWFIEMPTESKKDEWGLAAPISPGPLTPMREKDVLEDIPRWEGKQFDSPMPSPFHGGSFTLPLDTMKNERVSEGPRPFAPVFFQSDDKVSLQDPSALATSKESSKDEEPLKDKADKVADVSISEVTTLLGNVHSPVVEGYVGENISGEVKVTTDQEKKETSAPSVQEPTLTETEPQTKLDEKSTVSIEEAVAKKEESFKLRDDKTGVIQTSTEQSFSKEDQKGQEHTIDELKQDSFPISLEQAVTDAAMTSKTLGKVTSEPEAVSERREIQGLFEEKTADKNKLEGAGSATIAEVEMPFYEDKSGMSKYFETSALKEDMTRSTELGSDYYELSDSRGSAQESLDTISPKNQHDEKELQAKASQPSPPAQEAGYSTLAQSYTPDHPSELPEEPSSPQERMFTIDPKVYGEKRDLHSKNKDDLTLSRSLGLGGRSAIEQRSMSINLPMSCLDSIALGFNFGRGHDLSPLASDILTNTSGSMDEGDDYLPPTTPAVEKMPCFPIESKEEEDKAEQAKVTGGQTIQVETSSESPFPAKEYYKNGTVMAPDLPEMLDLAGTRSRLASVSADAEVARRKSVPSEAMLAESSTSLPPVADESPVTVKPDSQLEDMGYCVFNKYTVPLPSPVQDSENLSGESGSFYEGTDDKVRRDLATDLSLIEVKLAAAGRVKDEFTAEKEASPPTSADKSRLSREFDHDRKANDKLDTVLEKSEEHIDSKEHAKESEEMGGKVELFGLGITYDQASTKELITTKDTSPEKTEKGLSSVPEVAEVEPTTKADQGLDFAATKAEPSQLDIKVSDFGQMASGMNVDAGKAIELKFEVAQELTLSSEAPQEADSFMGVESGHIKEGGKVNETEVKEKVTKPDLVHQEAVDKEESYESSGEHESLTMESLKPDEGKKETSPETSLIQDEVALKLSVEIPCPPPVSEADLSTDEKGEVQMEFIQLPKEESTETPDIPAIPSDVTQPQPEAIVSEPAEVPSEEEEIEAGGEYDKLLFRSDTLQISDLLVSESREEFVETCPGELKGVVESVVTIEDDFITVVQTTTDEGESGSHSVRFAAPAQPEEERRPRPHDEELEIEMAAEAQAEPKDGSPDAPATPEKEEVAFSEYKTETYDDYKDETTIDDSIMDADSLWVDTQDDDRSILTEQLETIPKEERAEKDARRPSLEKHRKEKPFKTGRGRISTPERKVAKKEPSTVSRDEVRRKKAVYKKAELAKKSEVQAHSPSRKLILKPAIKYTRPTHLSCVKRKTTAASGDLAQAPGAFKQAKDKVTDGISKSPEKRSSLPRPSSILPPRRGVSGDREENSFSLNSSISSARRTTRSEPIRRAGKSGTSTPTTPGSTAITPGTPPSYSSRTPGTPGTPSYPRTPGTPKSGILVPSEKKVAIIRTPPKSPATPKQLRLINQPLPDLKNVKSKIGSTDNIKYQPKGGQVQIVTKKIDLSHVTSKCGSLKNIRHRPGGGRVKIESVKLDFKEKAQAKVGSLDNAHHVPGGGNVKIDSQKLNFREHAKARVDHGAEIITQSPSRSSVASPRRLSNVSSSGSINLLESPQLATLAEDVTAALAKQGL
UniProt P04370: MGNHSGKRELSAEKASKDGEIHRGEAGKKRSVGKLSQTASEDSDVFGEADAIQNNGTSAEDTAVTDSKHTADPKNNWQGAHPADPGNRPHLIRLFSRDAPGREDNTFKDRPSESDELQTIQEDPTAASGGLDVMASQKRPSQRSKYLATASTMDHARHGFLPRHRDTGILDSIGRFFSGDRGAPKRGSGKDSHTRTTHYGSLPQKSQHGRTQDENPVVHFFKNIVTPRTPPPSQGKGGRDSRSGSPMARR
UniProt Q9R0P9: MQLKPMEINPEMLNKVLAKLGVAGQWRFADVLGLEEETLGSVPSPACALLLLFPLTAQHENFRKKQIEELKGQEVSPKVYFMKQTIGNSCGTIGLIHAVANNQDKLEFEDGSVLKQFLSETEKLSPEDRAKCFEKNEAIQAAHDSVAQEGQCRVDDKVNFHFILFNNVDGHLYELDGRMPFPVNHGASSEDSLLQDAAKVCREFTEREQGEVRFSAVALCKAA

Experiments:
[1] = target: SOD1^Leu126delTT with a FLAG sequence at C terminal (DF mutant SOD1) (human) (UniProt P00441); assay: affinity purification with mass spectrometry; spinal cord of mice aged 145 days (DF symptomatic; WF); extract in 0.15 M NaCl, 10 mM Tris-HCl, 1% Triton X-100, pH 7.4; anti-FLAG M2 affinity gel, elution with 3xFLAG peptide, trypsin digest, LC-MS/MS
[2] = target: SOD1^Leu126delTT with a FLAG sequence at C terminal (DF mutant SOD1) (human) (UniProt P00441); assay: affinity purification with mass spectrometry; cerebellum of DF mice aged 145 days; same lysis buffer; anti-FLAG M2 affinity gel, elution with 3xFLAG peptide, LC-MS/MS
[3] = target: SOD1^Leu126delTT with a FLAG sequence at C terminal (DF mutant SOD1) (human) (UniProt P00441); assay: affinity purification with mass spectrometry; spinal cord of presymptomatic DF mice aged 35 days; same lysis buffer; anti-FLAG M2 affinity gel, elution with 3xFLAG peptide, LC-MS/MS
[4] = target: wild-type human SOD1 with the FLAG sequence (WF SOD1) (human) (UniProt P00441); assay: affinity purification with mass spectrometry; spinal cord of mice aged 145 days (DF symptomatic; WF); extract in 0.15 M NaCl, 10 mM Tris-HCl, 1% Triton X-100, pH 7.4; anti-FLAG M2 affinity gel, elution with 3xFLAG peptide, trypsin digest, LC-MS/MS

| binding [1] | binding [2] | binding [3] | binding [4] | Substance |
| --- | --- | --- | --- | --- |
| binds |  |  |  | ATP synthase β subunit (from UniProt P56480 47-529) |
| binds | binds | binds |  | Na/K ATPase α 2 subunit (from UniProt Q6PIE5 1-1020) |
|  | binds | binds |  | Na/K ATPase α 4 subunit (from UniProt Q9WV27 1-1032) |
|  | binds |  |  | adenylate cyclase-associated protein 2 (from UniProt Q9CYT6 1-476) |
|  | binds | binds |  | eukaryotic translation initiation factor 4B (from UniProt Q8BGD9 1-611) |
| binds | binds |  |  | heat shock 70 protein 1-like (from UniProt P16627 1-641) |
| binds |  |  |  | heat shock protein 9A (from UniProt P38647 47-679) |
| binds | binds | binds | binds | heat shock protein 70-2 (from UniProt P17156 1-633) |
| binds |  |  |  | microtubule-associated protein 2 (from UniProt P20357 1-1828) |
| binds |  | binds |  | myelin basic protein (from UniProt P04370 1-250) |
| binds |  |  |  | ubiquitin carboxy-terminal hydrolase L1 (from UniProt Q9R0P9 1-223) |
